The source gives many values for each of these; only a part stands here.
Assays:
Format in all cases: functional, cell-based
Parameters in all cases: recommended concentration 100 nM
[1] = target: Centromere-associated protein E (Homo sapiens) (UniProt Q02224); test: Affinity Phenotypic Cellular interaction: (Cell-growth inhibition assays (growth inhibitory effect colon cancer cell line MCF 10A)) EUB0000734a CENPE; conditions: Affinity Phenotypic Cellular Source Knowledge https://pubmed.ncbi.nlm.nih.gov/20167803/
[2] = target: Centromere-associated protein E (Homo sapiens) (UniProt Q02224); test: Affinity Phenotypic Cellular interaction: (Cell-growth inhibition assays (growth inhibitory effect colon cancer cell line NCI-H209)) EUB0000734a CENPE; conditions: Affinity Phenotypic Cellular Source Knowledge https://pubmed.ncbi.nlm.nih.gov/20167803/
[3] = target: Centromere-associated protein E (Homo sapiens) (UniProt Q02224); test: Affinity Phenotypic Cellular interaction: (Cell-growth inhibition assays (growth inhibitory effect colon cancer cell line U20S)) EUB0000734a CENPE; conditions: U2OS, Affinity Phenotypic Cellular Source Knowledge https://pubmed.ncbi.nlm.nih.gov/20167803/
[4] = target: Centromere-associated protein E (Homo sapiens) (UniProt Q02224); test: Affinity Phenotypic Cellular interaction: (Cell-growth inhibition assays (growth inhibitory effect lymphoma cancer cell line MJ)) EUB0000734a CENPE; conditions: Affinity Phenotypic Cellular Source Knowledge https://pubmed.ncbi.nlm.nih.gov/20167803/
[5] = target: Centromere-associated protein E (Homo sapiens) (UniProt Q02224); test: Affinity Phenotypic Cellular interaction: (Cell-growth inhibition assays (growth inhibitory effect colon cancer cell line SCC-12)) EUB0000734a CENPE; conditions: Affinity Phenotypic Cellular Source Knowledge https://pubmed.ncbi.nlm.nih.gov/20167803/
[6] = target: Centromere-associated protein E (Homo sapiens) (UniProt Q02224); test: Affinity Phenotypic Cellular interaction: (Cell-growth inhibition assays (growth inhibitory effect colon cancer cell line JEG-3)) EUB0000734a CENPE; conditions: Affinity Phenotypic Cellular Source Knowledge https://pubmed.ncbi.nlm.nih.gov/20167803/
[7] = target: Centromere-associated protein E (Homo sapiens) (UniProt Q02224); test: Affinity Phenotypic Cellular interaction: (Cell-growth inhibition assays (growth inhibitory effect colon cancer cell line MCF7)) EUB0000734a CENPE; conditions: Affinity Phenotypic Cellular Source Knowledge https://pubmed.ncbi.nlm.nih.gov/20167803/
[8] = target: Centromere-associated protein E (Homo sapiens) (UniProt Q02224); test: Affinity Phenotypic Cellular interaction: (Cell-growth inhibition assays (growth inhibitory effect colon cancer cell line J82)) EUB0000734a CENPE; conditions: Affinity Phenotypic Cellular Source Knowledge https://pubmed.ncbi.nlm.nih.gov/20167803/
[9] = target: Centromere-associated protein E (Homo sapiens) (UniProt Q02224); test: Affinity Phenotypic Cellular interaction: (Cell-growth inhibition assays (growth inhibitory effect colon cancer cell line COLO-704)) EUB0000734a CENPE; conditions: Affinity Phenotypic Cellular Source Knowledge https://pubmed.ncbi.nlm.nih.gov/20167803/
[10] = target: Centromere-associated protein E (Homo sapiens) (UniProt Q02224); test: Affinity Phenotypic Cellular interaction: (Cell-growth inhibition assays (growth inhibitory effect colon cancer cell line HT-1376)) EUB0000734a CENPE; conditions: Affinity Phenotypic Cellular Source Knowledge https://pubmed.ncbi.nlm.nih.gov/20167803/
[11] = target: Centromere-associated protein E (Homo sapiens) (UniProt Q02224); test: Affinity Phenotypic Cellular interaction: (Cell-growth inhibition assays (growth inhibitory effect colon cancer cell line NCI-H2170)) EUB0000734a CENPE; conditions: Affinity Phenotypic Cellular Source Knowledge https://pubmed.ncbi.nlm.nih.gov/20167803/
[12] = target: Centromere-associated protein E (Homo sapiens) (UniProt Q02224); test: Affinity Phenotypic Cellular interaction: (Cell-growth inhibition assays (growth inhibitory effect colon cancer cell line MC-IXC)) EUB0000734a CENPE; conditions: Affinity Phenotypic Cellular Source Knowledge https://pubmed.ncbi.nlm.nih.gov/20167803/
[13] = target: Centromere-associated protein E (Homo sapiens) (UniProt Q02224); test: Affinity Phenotypic Cellular interaction: (Cell-growth inhibition assays (growth inhibitory effect colon cancer cell line Capan-2)) EUB0000734a CENPE; conditions: Affinity Phenotypic Cellular Source Knowledge https://pubmed.ncbi.nlm.nih.gov/20167803/
[14] = target: Centromere-associated protein E (Homo sapiens) (UniProt Q02224); test: Affinity Phenotypic Cellular interaction: (Cell-growth inhibition assays (growth inhibitory effect colon cancer cell line 647-V)) EUB0000734a CENPE; conditions: Affinity Phenotypic Cellular Source Knowledge https://pubmed.ncbi.nlm.nih.gov/20167803/
[15] = target: Centromere-associated protein E (Homo sapiens) (UniProt Q02224); test: Affinity Phenotypic Cellular interaction: (Cell-growth inhibition assays (growth inhibitory effect colon cancer cell line NCI-H82)) EUB0000734a CENPE; conditions: Affinity Phenotypic Cellular Source Knowledge https://pubmed.ncbi.nlm.nih.gov/20167803/
[16] = target: Centromere-associated protein E (Homo sapiens) (UniProt Q02224); test: Affinity Phenotypic Cellular interaction: (Cell-growth inhibition assays (growth inhibitory effect colon cancer cell line MC/CAR)) EUB0000734a CENPE; conditions: Affinity Phenotypic Cellular Source Knowledge https://pubmed.ncbi.nlm.nih.gov/20167803/
[17] = target: Centromere-associated protein E (Homo sapiens) (UniProt Q02224); test: Affinity Phenotypic Cellular interaction: (Cell-growth inhibition assays (growth inhibitory effect colon cancer cell line MDA-MB-231)) EUB0000734a CENPE; conditions: Affinity Phenotypic Cellular Source Knowledge https://pubmed.ncbi.nlm.nih.gov/20167803/
[18] = target: Centromere-associated protein E (Homo sapiens) (UniProt Q02224); test: Affinity Phenotypic Cellular interaction: (Cell-growth inhibition assays (growth inhibitory effect colon cancer cell line UM-UC-3)) EUB0000734a CENPE; conditions: UMUC3, Affinity Phenotypic Cellular Source Knowledge https://pubmed.ncbi.nlm.nih.gov/20167803/
[19] = target: Centromere-associated protein E (Homo sapiens) (UniProt Q02224); test: Affinity Phenotypic Cellular interaction: (Cell-growth inhibition assays (growth inhibitory effect melanoma cancer cell line C32TG)) EUB0000734a CENPE; conditions: Affinity Phenotypic Cellular Source Knowledge https://pubmed.ncbi.nlm.nih.gov/20167803/
[20] = target: Centromere-associated protein E (Homo sapiens) (UniProt Q02224); test: Affinity Phenotypic Cellular interaction: (Cell-growth inhibition assays (growth inhibitory effect colon cancer cell line NCI-H157)) EUB0000734a CENPE; conditions: Affinity Phenotypic Cellular Source Knowledge https://pubmed.ncbi.nlm.nih.gov/20167803/
[21] = target: Centromere-associated protein E (Homo sapiens) (UniProt Q02224); test: Affinity Phenotypic Cellular interaction: (Cell-growth inhibition assays (growth inhibitory effect colon cancer cell line BFTC-905)) EUB0000734a CENPE; conditions: Affinity Phenotypic Cellular Source Knowledge https://pubmed.ncbi.nlm.nih.gov/20167803/
[22] = target: Centromere-associated protein E (Homo sapiens) (UniProt Q02224); test: Affinity Phenotypic Cellular interaction: (Cell-growth inhibition assays (growth inhibitory effect colon cancer cell line NCI-H596)) EUB0000734a CENPE; conditions: Affinity Phenotypic Cellular Source Knowledge https://pubmed.ncbi.nlm.nih.gov/20167803/
[23] = target: Centromere-associated protein E (Homo sapiens) (UniProt Q02224); test: Affinity Phenotypic Cellular interaction: (Cell-growth inhibition assays (growth inhibitory effect colon cancer cell line T84)) EUB0000734a CENPE; conditions: Affinity Phenotypic Cellular Source Knowledge https://pubmed.ncbi.nlm.nih.gov/20167803/
[24] = target: Centromere-associated protein E (Homo sapiens) (UniProt Q02224); test: Affinity Phenotypic Cellular interaction: (Cell-growth inhibition assays (growth inhibitory effect colon cancer cell line C-33A)) EUB0000734a CENPE; conditions: Affinity Phenotypic Cellular Source Knowledge https://pubmed.ncbi.nlm.nih.gov/20167803/
[25] = target: Centromere-associated protein E (Homo sapiens) (UniProt Q02224); test: Affinity Phenotypic Cellular interaction: (Cell-growth inhibition assays (growth inhibitory effect colon cancer cell line SCLC-3)) EUB0000734a CENPE; conditions: NL-SCLC3, Affinity Phenotypic Cellular Source Knowledge https://pubmed.ncbi.nlm.nih.gov/20167803/
[26] = target: Centromere-associated protein E (Homo sapiens) (UniProt Q02224); test: Affinity Phenotypic Cellular interaction: (Cell-growth inhibition assays (growth inhibitory effect colon cancer cell line A375)) EUB0000734a CENPE; conditions: A-375, Affinity Phenotypic Cellular Source Knowledge https://pubmed.ncbi.nlm.nih.gov/20167803/
[27] = target: Centromere-associated protein E (Homo sapiens) (UniProt Q02224); test: Affinity Phenotypic Cellular interaction: (Cell-growth inhibition assays (growth inhibitory effect colon cancer cell line Saos-2)) EUB0000734a CENPE; conditions: Affinity Phenotypic Cellular Source Knowledge https://pubmed.ncbi.nlm.nih.gov/20167803/
[28] = target: Centromere-associated protein E (Homo sapiens) (UniProt Q02224); test: Affinity Phenotypic Cellular interaction: (Cell-growth inhibition assays (growth inhibitory effect colon cancer cell line SK-N-DZ)) EUB0000734a CENPE; conditions: Affinity Phenotypic Cellular Source Knowledge https://pubmed.ncbi.nlm.nih.gov/20167803/
[29] = target: Centromere-associated protein E (Homo sapiens) (UniProt Q02224); test: Affinity Phenotypic Cellular interaction: (Cell-growth inhibition assays (growth inhibitory effect colon cancer cell line 5637)) EUB0000734a CENPE; conditions: Affinity Phenotypic Cellular Source Knowledge https://pubmed.ncbi.nlm.nih.gov/20167803/
[30] = target: Centromere-associated protein E (Homo sapiens) (UniProt Q02224); test: Affinity Phenotypic Cellular interaction: (Cell-growth inhibition assays (growth inhibitory effect colon cancer cell line SNU-16)) EUB0000734a CENPE; conditions: Affinity Phenotypic Cellular Source Knowledge https://pubmed.ncbi.nlm.nih.gov/20167803/
[31] = target: Centromere-associated protein E (Homo sapiens) (UniProt Q02224); test: Affinity Phenotypic Cellular interaction: (Cell-growth inhibition assays (growth inhibitory effect colon cancer cell line OVCAR-8)) EUB0000734a CENPE; conditions: Affinity Phenotypic Cellular Source Knowledge https://pubmed.ncbi.nlm.nih.gov/20167803/
[32] = target: Centromere-associated protein E (Homo sapiens) (UniProt Q02224); test: Affinity Phenotypic Cellular interaction: (Cell-growth inhibition assays (growth inhibitory effect colon cancer cell line NCI-H460)) EUB0000734a CENPE; conditions: Affinity Phenotypic Cellular Source Knowledge https://pubmed.ncbi.nlm.nih.gov/20167803/
[33] = target: Centromere-associated protein E (Homo sapiens) (UniProt Q02224); test: Affinity Phenotypic Cellular interaction: (Cell-growth inhibition assays (growth inhibitory effect colon cancer cell line SK-LMS-1)) EUB0000734a CENPE; conditions: Affinity Phenotypic Cellular Source Knowledge https://pubmed.ncbi.nlm.nih.gov/20167803/
[34] = target: Centromere-associated protein E (Homo sapiens) (UniProt Q02224); test: Affinity Phenotypic Cellular interaction: (Cell-growth inhibition assays (growth inhibitory effect colon cancer cell line DU145)) EUB0000734a CENPE; conditions: DU-145, Affinity Phenotypic Cellular Source Knowledge https://pubmed.ncbi.nlm.nih.gov/20167803/
[35] = target: Centromere-associated protein E (Homo sapiens) (UniProt Q02224); test: Affinity Phenotypic Cellular interaction: (Cell-growth inhibition assays (growth inhibitory effect colon cancer cell line SW-962)) EUB0000734a CENPE; conditions: Affinity Phenotypic Cellular Source Knowledge https://pubmed.ncbi.nlm.nih.gov/20167803/
[36] = target: Centromere-associated protein E (Homo sapiens) (UniProt Q02224); test: Affinity Phenotypic Cellular interaction: (Cell-growth inhibition assays (growth inhibitory effect colon cancer cell line RL95-2)) EUB0000734a CENPE; conditions: Affinity Phenotypic Cellular Source Knowledge https://pubmed.ncbi.nlm.nih.gov/20167803/
[37] = target: Centromere-associated protein E (Homo sapiens) (UniProt Q02224); test: Affinity Phenotypic Cellular interaction: (Cell-growth inhibition assays (growth inhibitory effect colon cancer cell line RD-ES)) EUB0000734a CENPE; conditions: Affinity Phenotypic Cellular Source Knowledge https://pubmed.ncbi.nlm.nih.gov/20167803/
[38] = target: Centromere-associated protein E (Homo sapiens) (UniProt Q02224); test: Affinity Phenotypic Cellular interaction: (Cell-growth inhibition assays (growth inhibitory effect colon cancer cell line NCI-H747)) EUB0000734a CENPE; conditions: Affinity Phenotypic Cellular Source Knowledge https://pubmed.ncbi.nlm.nih.gov/20167803/

Protein sequences, listed by entry. Tags and fused reporters are not part of them. Lines headed by an entry give the natural chain unless they say otherwise; changes in a name come on top.
UniProt Q02224: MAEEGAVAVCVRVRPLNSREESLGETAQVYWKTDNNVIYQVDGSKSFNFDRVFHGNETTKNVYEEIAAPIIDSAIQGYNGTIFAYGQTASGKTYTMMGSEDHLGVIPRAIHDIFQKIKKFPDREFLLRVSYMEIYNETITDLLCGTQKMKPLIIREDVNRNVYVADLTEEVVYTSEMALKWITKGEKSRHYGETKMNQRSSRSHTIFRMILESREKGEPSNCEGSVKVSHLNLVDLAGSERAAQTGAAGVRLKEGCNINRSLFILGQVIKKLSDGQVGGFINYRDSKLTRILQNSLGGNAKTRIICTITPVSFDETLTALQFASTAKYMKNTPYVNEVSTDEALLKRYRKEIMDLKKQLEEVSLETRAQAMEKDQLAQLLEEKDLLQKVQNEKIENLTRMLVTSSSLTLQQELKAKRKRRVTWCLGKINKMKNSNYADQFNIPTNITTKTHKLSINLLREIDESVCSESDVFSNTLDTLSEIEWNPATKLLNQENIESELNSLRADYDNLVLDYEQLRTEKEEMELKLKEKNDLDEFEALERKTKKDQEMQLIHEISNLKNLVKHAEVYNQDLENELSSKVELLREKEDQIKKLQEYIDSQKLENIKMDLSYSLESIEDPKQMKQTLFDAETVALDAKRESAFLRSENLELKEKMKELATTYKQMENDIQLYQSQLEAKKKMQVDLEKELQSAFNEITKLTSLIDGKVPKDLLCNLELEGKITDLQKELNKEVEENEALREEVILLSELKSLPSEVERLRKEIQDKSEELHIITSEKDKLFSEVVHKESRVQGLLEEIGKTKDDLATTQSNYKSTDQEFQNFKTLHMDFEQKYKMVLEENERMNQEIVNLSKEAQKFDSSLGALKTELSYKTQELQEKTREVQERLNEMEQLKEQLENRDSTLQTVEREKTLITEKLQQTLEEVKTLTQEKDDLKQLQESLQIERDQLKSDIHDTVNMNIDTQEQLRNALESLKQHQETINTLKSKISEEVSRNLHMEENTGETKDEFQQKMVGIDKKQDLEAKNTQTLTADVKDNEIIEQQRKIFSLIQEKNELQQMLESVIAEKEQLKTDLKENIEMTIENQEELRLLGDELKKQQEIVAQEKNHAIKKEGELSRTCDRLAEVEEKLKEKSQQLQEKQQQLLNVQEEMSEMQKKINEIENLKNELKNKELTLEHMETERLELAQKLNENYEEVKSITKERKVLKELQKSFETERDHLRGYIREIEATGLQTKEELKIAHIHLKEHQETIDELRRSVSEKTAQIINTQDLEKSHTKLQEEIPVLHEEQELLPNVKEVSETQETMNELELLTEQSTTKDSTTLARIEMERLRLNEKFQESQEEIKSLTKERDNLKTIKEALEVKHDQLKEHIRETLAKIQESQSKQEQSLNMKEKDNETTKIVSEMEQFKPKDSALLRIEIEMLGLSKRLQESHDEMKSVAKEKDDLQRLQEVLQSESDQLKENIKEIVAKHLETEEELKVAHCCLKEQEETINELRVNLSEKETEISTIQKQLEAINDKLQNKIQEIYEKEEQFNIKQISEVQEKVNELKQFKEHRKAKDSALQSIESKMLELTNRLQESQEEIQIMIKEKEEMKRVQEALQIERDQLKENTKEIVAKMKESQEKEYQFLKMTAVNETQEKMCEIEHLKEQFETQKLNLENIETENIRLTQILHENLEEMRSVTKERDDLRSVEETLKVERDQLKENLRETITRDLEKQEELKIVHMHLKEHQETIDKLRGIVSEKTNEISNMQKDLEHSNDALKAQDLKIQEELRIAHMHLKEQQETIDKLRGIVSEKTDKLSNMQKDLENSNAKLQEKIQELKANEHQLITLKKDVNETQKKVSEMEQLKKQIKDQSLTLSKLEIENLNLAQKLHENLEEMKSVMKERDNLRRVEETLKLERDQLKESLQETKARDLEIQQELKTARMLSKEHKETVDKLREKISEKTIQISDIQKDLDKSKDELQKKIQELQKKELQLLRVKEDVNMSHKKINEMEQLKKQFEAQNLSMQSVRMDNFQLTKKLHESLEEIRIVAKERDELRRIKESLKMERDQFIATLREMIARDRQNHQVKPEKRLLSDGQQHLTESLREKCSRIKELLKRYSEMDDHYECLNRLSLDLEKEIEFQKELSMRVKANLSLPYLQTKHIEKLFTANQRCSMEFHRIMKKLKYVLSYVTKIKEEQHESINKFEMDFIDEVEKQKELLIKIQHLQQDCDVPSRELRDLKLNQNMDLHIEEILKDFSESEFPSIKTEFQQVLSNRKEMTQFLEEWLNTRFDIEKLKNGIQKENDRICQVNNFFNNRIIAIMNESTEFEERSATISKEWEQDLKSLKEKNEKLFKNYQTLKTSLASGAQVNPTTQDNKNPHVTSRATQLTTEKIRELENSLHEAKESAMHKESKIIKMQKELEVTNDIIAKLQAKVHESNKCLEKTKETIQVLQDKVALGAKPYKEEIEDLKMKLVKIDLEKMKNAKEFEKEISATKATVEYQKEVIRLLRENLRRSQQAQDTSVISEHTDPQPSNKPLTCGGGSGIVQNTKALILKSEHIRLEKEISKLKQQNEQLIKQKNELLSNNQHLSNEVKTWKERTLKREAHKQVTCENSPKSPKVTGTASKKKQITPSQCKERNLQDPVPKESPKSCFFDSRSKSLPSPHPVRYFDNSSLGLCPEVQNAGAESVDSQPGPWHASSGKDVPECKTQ

GIC50 [1]: 16 nM
GIC50 [2]: 20 nM
GIC50 [3]: 45 nM
GIC50 [4]: 50 nM
GIC50 [5]: 33 nM
GIC50 [6]: 25 nM
GIC50 [7]: 29 nM
GIC50 [8]: 114 nM
GIC50 [9]: 69 nM
GIC50 [10]: 33 nM
GIC50 [11]: 25 nM
GIC50 [12]: 27 nM
GIC50 [13]: 119 nM
GIC50 [14]: 72 nM
GIC50 [15]: 18 nM
GIC50 [16]: 86 nM
GIC50 [17]: 5.01 µM
GIC50 [18]: 23 nM
GIC50 [19]: 28 nM
GIC50 [20]: 37 nM
GIC50 [21]: 30 nM
GIC50 [22]: 5.02 µM
GIC50 [23]: 75 nM
GIC50 [24]: 47 nM
GIC50 [25]: 31 nM
GIC50 [26]: 26 nM
GIC50 [27]: 41 nM
GIC50 [28]: 69 nM
GIC50 [29]: 23 nM
GIC50 [30]: 18 nM
GIC50 [31]: 50 nM
GIC50 [32]: 29 nM
GIC50 [33]: 30 nM
GIC50 [34]: 23 nM
GIC50 [35]: 21 nM
GIC50 [36]: 49 nM
GIC50 [37]: 63 nM
GIC50 [38]: 163 nM
Structure (SMILES): CC(C)Oc1ccc(C(=O)N[C@H](CNC(=O)CN(C)C)Cc2ccc(-c3cn4cccc([C@H](C)O)c4n3)cc2)cc1Cl

Reference: ChEMBL document CHEMBL5444388, “Affinity Phenotypic Cellular Literature for EUbOPEN Chemogenomic Library” (2024)
